Data as given in PubChem BioAssay AID1259425 (University of Nebraska Medical Center, 2018).
Here is an unselected part of about 14,000 reagents. Some reagents were tested in more than one well and are listed for each. Reagent sequences are not shown. Not given: the time to read-out.

Assay: 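Seek colon cancer weak points whose silencing resembles KSR1 loss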 (primary screen)
System: HCT116 human colon cancer cells
Reagent: siRNA pool against human genes, 50 nM siRNA
Detection: 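After 50 nM siRNA pool, branched-DNA assay measures six marker transcripts per well, minus blank, normalised to the geometric mean of two housekeeping transcripts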
Direction: BNIP3L mRNA: higher = more BNIP3L transcript after knockdown; NDRG1 mRNA: higher = more NDRG1 transcript after knockdown; BNIP3 mRNA: higher = more BNIP3 transcript after knockdown; ALDOC mRNA: higher = more ALDOC transcript after knockdown; ACSL5 mRNA: higher = more ACSL5 transcript after knockdown

no.	target gene	BNIP3L mRNA, set 1	NDRG1 mRNA, set 1	BNIP3 mRNA, set 1	ALDOC mRNA, set 1	ACSL5 mRNA, set 1
1	CRYBB1 (crystallin beta B1)	0.124	0.232	0.763	0.041	0.526
2	SH3GLB1 (SH3 domain containing GRB2 like, endophilin B1)	0.182	0.165	0.41	0.0285	0.168
3	COQ9 (coenzyme Q9)	0.277	0.131	0.284	0.0535	0.199
4	HLA-DMA (major histocompatibility complex, class II, DM alpha)	0.0982	0.0544	0.263	0.0177	0.12
5	OTOF (otoferlin)	0.179	0.18	0.419	0.0354	0.152
6	PPP1R10 (protein phosphatase 1 regulatory subunit 10)	0.0911	0.372	0.346	0.00283	0.129
7	SIRT4 (sirtuin 4)	0.0647	0.524	0.379	0.0446	0.166
8	STYK1 (STY kinase 1)	0.0789	0.0645	0.377	0.0112	0.134
9	JPT1 (Jupiter microtubule associated homolog 1)	0.0555	0.089	0.228	0.0181	0.0994
10	JPT1 (Jupiter microtubule associated homolog 1)	0.0522	0.11	0.204	0.0202	0.0813
11	CD247 (CD247 molecule)	0.0852	0.417	0.309	0.0368	0.269
12	CXXC4 (CXXC finger protein 4)	0.216	0.262	0.428	0.0594	0.212
13	GPR132 (G protein-coupled receptor 132)	0.112	0.262	0.329	0.0178	0.189
14	VMA22 (vacuolar ATPase assembly factor VMA22)	0.119	0.135	0.279	0.102	0.245
15	FKBP9 (FKBP prolyl isomerase 9)	0.103	0.13	0.27	0.0133	0.104
16	GBA3 (glucosylceramidase beta 3 (gene/pseudogene))	0.0732	0.118	0.338	0.0167	0.142
17	TTC29 (tetratricopeptide repeat domain 29)	0.127	0.185	0.217	0.0741	0.152
18	MPPED2 (metallophosphoesterase domain containing 2)	0.087	0.133	0.297	0.0132	0.163
19	GPT2 (glutamic--pyruvic transaminase 2)	0.0792	0.146	0.293	0.0163	0.201
20	SIGLEC7 (sialic acid binding Ig like lectin 7)	0.109	0.095	0.336	0.0297	0.139

Reformatted: results already given
OTOF (otoferlin) → BNIP3L mRNA, set 1 = 0.179; NDRG1 mRNA, set 1 = 0.18; BNIP3 mRNA, set 1 = 0.419; ALDOC mRNA, set 1 = 0.0354; ACSL5 mRNA, set 1 = 0.152
PPP1R10 (protein phosphatase 1 regulatory subunit 10) → BNIP3L mRNA, set 1 = 0.0911; NDRG1 mRNA, set 1 = 0.372; BNIP3 mRNA, set 1 = 0.346; ALDOC mRNA, set 1 = 0.00283; ACSL5 mRNA, set 1 = 0.129
SIRT4 (sirtuin 4) → BNIP3L mRNA, set 1 = 0.0647; NDRG1 mRNA, set 1 = 0.524; BNIP3 mRNA, set 1 = 0.379; ALDOC mRNA, set 1 = 0.0446; ACSL5 mRNA, set 1 = 0.166
STYK1 (STY kinase 1) → BNIP3L mRNA, set 1 = 0.0789; NDRG1 mRNA, set 1 = 0.0645; BNIP3 mRNA, set 1 = 0.377; ALDOC mRNA, set 1 = 0.0112; ACSL5 mRNA, set 1 = 0.134
JPT1 (Jupiter microtubule associated homolog 1) → BNIP3L mRNA, set 1 = 0.0555; NDRG1 mRNA, set 1 = 0.089; BNIP3 mRNA, set 1 = 0.228; ALDOC mRNA, set 1 = 0.0181; ACSL5 mRNA, set 1 = 0.0994

Additional entries follow:
no.	target gene	BNIP3L mRNA, set 1	NDRG1 mRNA, set 1	BNIP3 mRNA, set 1	ALDOC mRNA, set 1	ACSL5 mRNA, set 1
21	RFX2 (regulatory factor X2)	0.131	0.0351	0.272	0.00504	0.208
22	NEK11 (NIMA related kinase 11)	0.0602	0.138	0.26	0.026	0.294
23	SEPTIN6 (septin 6)	0.155	0.0783	0.43	0.0262	0.37
24	GPR20 (G protein-coupled receptor 20)	0.148	0.204	0.326	0.0868	0.243
25	DCUN1D5 (defective in cullin neddylation 1 domain containing 5)	0.0885	0.0686	0.216	0.0541	0.159
26	KREMEN2 (kringle containing transmembrane protein 2)	0.067	0.369	0.318	0.0232	0.0993
27	SSH1 (slingshot protein phosphatase 1)	0.0776	0.155	0.256	0.0278	0.244
28	SH3PXD2A (SH3 and PX domains 2A)	0.0817	0.0212	0.248	0.0139	0.0293
29	TMEM126A (transmembrane protein 126A)	0.173	0.153	0.224	0.0774	0.643
30	THTPA (thiamine triphosphatase)	0.193	0.772	0.459	0.0552	0.203
31	CXCL6 (C-X-C motif chemokine ligand 6)	0.132	0.288	0.241	0.0316	0.195
32	ICAM5 (intercellular adhesion molecule 5)	0.17	0.172	0.269	0	0.147
33	RAD23B (RAD23 nucleotide excision repair protein B)	0.124	0.473	0.347	0.0208	0.2
34	ENG (endoglin)	0.119	0.17	0.197	0.0169	0.102
35	HNF4G (hepatocyte nuclear factor 4 gamma)	0.0859	0.151	0.277	0.0171	0.108
36	CRHR1 (corticotropin releasing hormone receptor 1)	0.218	0.106	0.317	0.0192	0.163
37	ZNF76 (zinc finger protein 76)	0.116	0.139	0.341	0.00815	0.119
38	ARPC1B (actin related protein 2/3 complex subunit 1B)	0.0568	0.0771	0.241	0.0196	0.147
39	CIITA (class II major histocompatibility complex transactivator)	0.111	0.147	0.358	0.029	0.123
40	POLQ (DNA polymerase theta)	0.118	0.135	0.217	0.0198	0.376
41	COX6C (cytochrome c oxidase subunit 6C)	0.0751	0.12	0.259	0.017	0.17
42	BMP2 (bone morphogenetic protein 2)	0.1	0.118	0.264	0.0307	0.222
43	AKIRIN1 (akirin 1)	0.0559	0.147	0.417	0.0026	0.381
44	ATP1B3 (ATPase Na+/K+ transporting subunit beta 3)	0.112	0.133	0.318	0.0457	0.214
45	TSG101 (tumor susceptibility 101)	0.0702	0.203	0.271	0.0226	0.135
46	ACAA1 (acetyl-CoA acyltransferase 1)	0.252	0.571	0.402	0.045	0.485
47	MCM3AP	0.106	0.14	0.283	0.00675	0.264
48	ZNF354C (zinc finger protein 354C)	0.178	0.178	0.517	0.107	0.204
49	TNFRSF1A (TNF receptor superfamily member 1A)	0.106	0.38	0.161	0.0523	0.203
50	TSSK2 (testis specific serine kinase 2)	0.149	0.219	0.609	0.0219	0.479
